Laboratory results: article PMC10406618
These are yes or no findings as the source states them, for the method shown. In cells and extracts the contact can be indirect. Some entries that bind do so weakly or less than the wild type.

Sequences of proteins named here, by UniProt entry; tags and fusion partners are left off.
UniProt P09874: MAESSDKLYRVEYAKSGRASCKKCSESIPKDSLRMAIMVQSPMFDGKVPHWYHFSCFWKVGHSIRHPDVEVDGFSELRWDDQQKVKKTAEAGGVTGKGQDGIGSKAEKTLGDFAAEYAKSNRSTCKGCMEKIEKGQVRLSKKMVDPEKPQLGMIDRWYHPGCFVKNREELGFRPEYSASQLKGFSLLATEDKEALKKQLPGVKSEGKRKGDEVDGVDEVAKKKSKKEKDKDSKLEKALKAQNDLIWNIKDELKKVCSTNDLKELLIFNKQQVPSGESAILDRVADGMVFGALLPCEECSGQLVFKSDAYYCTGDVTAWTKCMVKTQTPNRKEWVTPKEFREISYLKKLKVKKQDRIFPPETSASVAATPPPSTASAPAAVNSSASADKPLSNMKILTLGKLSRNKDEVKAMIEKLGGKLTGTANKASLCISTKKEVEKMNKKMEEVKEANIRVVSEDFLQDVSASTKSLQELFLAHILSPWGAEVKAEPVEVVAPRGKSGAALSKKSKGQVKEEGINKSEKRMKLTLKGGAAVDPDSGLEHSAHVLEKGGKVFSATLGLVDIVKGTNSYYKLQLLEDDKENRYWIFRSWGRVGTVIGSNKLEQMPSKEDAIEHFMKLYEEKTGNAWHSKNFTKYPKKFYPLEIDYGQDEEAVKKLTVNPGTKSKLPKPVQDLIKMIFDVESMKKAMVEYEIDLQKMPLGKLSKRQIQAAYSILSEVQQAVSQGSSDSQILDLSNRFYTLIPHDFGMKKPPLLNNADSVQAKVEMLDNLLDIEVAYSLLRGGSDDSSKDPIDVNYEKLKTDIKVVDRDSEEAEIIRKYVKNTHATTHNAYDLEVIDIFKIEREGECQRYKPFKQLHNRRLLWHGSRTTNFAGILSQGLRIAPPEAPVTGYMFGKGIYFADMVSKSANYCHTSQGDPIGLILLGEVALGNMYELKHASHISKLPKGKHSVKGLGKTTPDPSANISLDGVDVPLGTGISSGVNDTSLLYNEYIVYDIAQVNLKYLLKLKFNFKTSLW

Assays:
[1] = molecular target: poly (ADP-ribose) polymerase 1 (PARP1), endogenous (human (endogenous in Huh7)) (UniProt P09874); assay: co-sedimentation; sucrose gradient fractionation of Huh7 cell extracts (NETN buffer, 36,000 rpm 3 h 4 °C, SW41 rotor), fractions blotted; with or without 3 Gy irradiation and PC4 knock-down
[2] = molecular target: poly (ADP-ribose) polymerase 1 (PARP1), endogenous (human (endogenous in Huh7)) (UniProt P09874); assay: co-IP; endogenous proteins; lysates of Huh7, HepG2, HeLa or HEK293T cells in IP lysis buffer (50 mM Tris-HCl pH 7.5, 150 mM NaCl, 1 mM EDTA, 1 mM EGTA, 5 mM MgCl2, 10% glycerol, 0.2% NP-40), antibody 4 h at 4 °C, Protein A/G beads; with or without 3 Gy irradiation, benzonase, PARG inhibitor PDD00017273 (10 μM), PC4 knock-down

**Q.** “XRCC5 (Ku80), endogenous (from UniProt P13010 1-732)” was tested. Which binding [1] did it give?
**A.** The binding was “binds”.

**Q.** And the binding [2]?
**A.** Its binding is “binds”.
